The results in this text go back to the supplement of paper PMC8732350.

Structures can show the parent of a compound that is named as a salt. ± gives the standard deviation of the averaged measurements. This is one part of the list. Repeats in this data set agree poorly, so a single value says little.

For this assay, the system named is A549. Description: surface PD-L1 immunofluorescence intensity relative to IFN-gamma-only control (ratio); higher = more PD-L1 expression. As to conditions: 10 µM; exposure time 24 h; IFN-gamma 100 ng/mL.
With `C[C@H](NC(=O)c1sccc1OCc1ccc(Cl)cc1)c1ccccc1`, the “surface PD-L1 immunofluorescence intensity” value was determined as 1. The result for `CNc1nc(Nc2cnn([C@H]3CCN(C4COC4)C[C@@H]3F)c2Cl)ncc1C(F)(F)F` reads 1.07; that for `N#Cc1ccccc1OCC(O)CNCCNC(=O)Nc1ccccc1` (stereo not drawn), 1.03; that for `Clc1ccc(C(Cn2ccnc2)OCc2c(Cl)cccc2Cl)c(Cl)c1` (stereo not drawn) [Isoconazole], 0.946. With `NC(=O)N1c2ccccc2C=Cc2ccccc21` [Carbamazepine], the “surface PD-L1 immunofluorescence intensity” value was determined as 0.847. In the case of `O=C(CCCCCCNC(=O)c1cnc(N(c2ccccc2)c2ccccc2)nc1)NO` [Rocilinostat (ACY-1215)] it was 1.07. Take `O=c1ncccn1[C@@H]1O[C@H](CO)[C@@H](O)[C@H]1O` [Zebularine]: the “surface PD-L1 immunofluorescence intensity” value was found to be 1.01 ± 0.094. As to `CN(C)CCN(Cc1cccs1)c1ccccn1` [Methapyrilene hydrochloride], the “surface PD-L1 immunofluorescence intensity” value was 1.09. In the case of `COc1c(O[C@@H]2O[C@H](CO)[C@@H](O)[C@H](O)[C@H]2O)cc2c(c1OC)-c1ccc(SC)c(=O)cc1[C@@H](NC(C)=O)CC2` [Thiocolchicoside] it was 1.01; in that of `OC(c1ccccc1)C1CCN(CCc2ccccc2)CC1` (stereo not drawn), 1.07. In the case of `COc1ccc(NC(=O)c2cc(OCCCN(C)C)nn2Cc2ccccc2)cc1` [CFM 1571 hydrochloride] it was 1.13; in that of `CC(=O)N[C@@H](CC(C)C)C(=O)O` [N-Acetyl-L-leucine], 1.06. For the compound `Nc1nc(=O)c2nc(CNc3ccc(C(=O)N[C@@H](CCC(=O)O)C(=O)O)cc3)cnc2[nH]1` [Folic acid], the “surface PD-L1 immunofluorescence intensity” value was 0.953. The result for `C=C1CC[C@H](O)C/C1=C/C=C1\CCC[C@]2(C)[C@@H]([C@H](C)CCCC(C)(C)O)CC[C@@H]12` [Calcifediol] reads 1.03.

Turning to `C=C1CC[C@H](O)C/C1=C/C=C1\CCC[C@]2(C)[C@@H]([C@H](C)CCCC(C)(C)O)CC[C@@H]12` [25-Hydroxyvitamin D3], the “surface PD-L1 immunofluorescence intensity” value turned out to be 0.973. For `O=C(NCCS(=O)(=O)c1ccc(C(F)(F)F)cn1)c1ccc(Cl)cc1`, the “surface PD-L1 immunofluorescence intensity” value is 1.14. Consider `Nc1nc(F)nc2c1ncn2[C@@H]1O[C@H](CO)[C@@H](O)[C@@H]1O` [Fludarabine], for which the “surface PD-L1 immunofluorescence intensity” value was 0.977 ± 0.031. In the case of `CC[C@H]1OC(=O)[C@H](C)[C@@H](O[C@H]2C[C@@](C)(OC)[C@@H](O)[C@H](C)O2)[C@H](C)[C@@H](O[C@@H]2O[C@H](C)C[C@H](N(C)C)[C@H]2O)[C@](C)(O)C[C@@H](C)/C(=N\OCOCCOC)[C@H](C)[C@@H](O)[C@]1(C)O` [Roxithromycin (Roxl-150)] it was 1.02; in that of `CC[C@H]1OC(=O)[C@H](C)[C@@H](O[C@H]2C[C@@](C)(OC)[C@@H](O)[C@H](C)O2)[C@H](C)[C@@H](O[C@@H]2O[C@H](C)C[C@H](N(C)C)[C@H]2O)[C@](C)(O)C[C@@H](C)/C(=N\OCOCCOC)[C@H](C)[C@@H](O)[C@]1(C)O` [Roxithromycin], 0.939. Regarding `O=C1CN2Cc3c(ccc(Cl)c3Cl)N=C2N1` [Anagrelide HCl], the “surface PD-L1 immunofluorescence intensity” value is 1.02. The result for `CC(C)NCC(O)COc1ccc(COCCOC(C)C)cc1` (stereo not drawn) [Bisoprolol fumarate] reads 1.13; that for `COc1ccc(-c2cc(=O)c3c(O)cc(O)cc3o2)cc1O` [Diosmetin (Luteolin 4-methyl ether)], 1.19.

In the case of `O=C(NCCNCC(O)COc1ccc(O)cc1)N1CCOCC1` (stereo not drawn) [Xamoterol hemifumarate], the “surface PD-L1 immunofluorescence intensity” value worked out at 1.07. In the case of `CN(C)CCOC1=Cc2ccccc2Sc2ccc(Cl)cc21` [Zotepine], the “surface PD-L1 immunofluorescence intensity” value was 0.944. For the compound `CCN(Cc1ccncc1)C(=O)C(CO)c1ccccc1` (stereo not drawn) [Tropicamide], the “surface PD-L1 immunofluorescence intensity” value amounted to 1.06. The result for `OC(CCN1CCCCC1)(c1ccccc1)C1CC2C=CC1C2` (stereo not drawn) [Biperiden hydrochloride] reads 0.996; that for `OC(CCN1CCCCC1)(c1ccccc1)C1CC2C=CC1C2` (stereo not drawn) [Biperiden HCl], 1.02. Take `Cc1ncc([N+](=O)[O-])n1CCO` [Metronidazole]: the “surface PD-L1 immunofluorescence intensity” value was 0.863. As for `CCN(CC)CC#CCOC(=O)C(O)(c1ccccc1)C1CCCCC1` (stereo not drawn) [Oxybutynin chloride], the “surface PD-L1 immunofluorescence intensity” value came to 0.867. Regarding `CN1C2CCCC1CC(NC(=O)c1nn(C)c3ccccc13)C2` (stereo not drawn) [Granisetron], the “surface PD-L1 immunofluorescence intensity” value worked out at 1.11. With `CN1C2CCCC1CC(NC(=O)c1nn(C)c3ccccc13)C2` (stereo not drawn) [Granisetron HCl], the “surface PD-L1 immunofluorescence intensity” value came to 0.983. Regarding `CC(C)N1CCN(c2ccc(OCC3COC(Cn4cncn4)(c4ccc(Cl)cc4Cl)O3)cc2)CC1` (stereo not drawn) [Terconazole], the “surface PD-L1 immunofluorescence intensity” value was found to be 1.06. In the case of `C=CC[C@@H]1/C=C(\C)C[C@H](C)C[C@H](OC)[C@H]2O[C@@](O)(C(=O)C(=O)N3CCCC[C@H]3C(=O)O[C@H](/C(C)=C/[C@@H]3CC[C@@H](O)[C@H](OC)C3)[C@H](C)[C@@H](O)CC1=O)[C@H](C)C[C@@H]2OC` [FK-506 (Tacrolimus)] it was 0.976. For `Cc1ccc(C(=O)c2cc(O)c(O)c([N+](=O)[O-])c2)cc1` [Tolcapone], the “surface PD-L1 immunofluorescence intensity” value came to 0.944. The result for `NC[C@H]1O[C@H](O[C@H]2[C@H](O[C@@H]3O[C@H](CO)[C@@H](O)[C@H]3O)[C@@H](O)[C@H](N)C[C@@H]2N)[C@H](N)[C@@H](O)[C@@H]1O` [Ribostamycin sulfate salt] reads 1. In the case of `COc1ccc2[nH]cc(CCNC(C)=O)c2c1` [Melatonin] it was 1.03 ± 0.054; in that of `COc1ccc(COc2ccc(Cc3cnc(N)nc3N)cc2OC)cc1`, 1.09; in that of `Cc1cc([N+](=O)[O-])ccc1NS(=O)(=O)c1cc(Cl)ccc1Cl`, 0.918. In the case of `COc1ccc(C(=O)NCc2cccnc2)cc1C(=O)NCc1cccnc1` [Picotamide monohydrate], the “surface PD-L1 immunofluorescence intensity” value came to 0.95.

For the compound `Cc1c(C(=O)N(C)C2CCCCC2)sc2nc3ccc(N)cc3n12`, the “surface PD-L1 immunofluorescence intensity” value was 1.24.

For `O=c1c(O)cccc2cc(O)c(O)c(O)c12` [Purpurogallin], the “surface PD-L1 immunofluorescence intensity” value was 0.98. As to `Cc1ccc(S(=O)(=O)NC(=O)NN2CC3CCCC3C2)cc1` (stereo not drawn) [Gliclazide], the “surface PD-L1 immunofluorescence intensity” value came to 0.968. For `CC(=O)N[C@@H](CC(=O)N[C@@H](CCC(=O)O)C(=O)O)C(=O)O` [Spaglumic acid], the “surface PD-L1 immunofluorescence intensity” value is 1.03 ± 0.057.

On to `c1ccc(C(NCCNC(c2ccccc2)c2ccccc2)c2ccccc2)cc1` [AMN 082 dihydrochloride], for which the “surface PD-L1 immunofluorescence intensity” value came out at 0.934. The result for `O=c1c(O)c(-c2cc(O)c(O)c(O)c2)oc2cc(O)cc(O)c12` [Myricetin (Cannabiscetin)] reads 1.08; that for `Cc1cc(Cn2cnc3c2CC(C(=O)O)N(C(=O)C(c2ccccc2)c2ccccc2)C3)ccc1N(C)C` (stereo not drawn), 0.938; that for `CCN(CC)CCOc1ccc(Cc2ccccc2)cc1` [DPPE fumarate], 1.14. The result for `CCn1cc(C(=O)O)c(=O)c2cnc(N3CCNCC3)nc21` [Pipemidic acid] reads 1.07; that for `NCCS(=O)(=O)O` [Taurine], 1.09; that for `N#CC(C#N)=C(N)/C(C#N)=C/c1ccc(O)cc1`, 1.04. `CCCC[C@@H](C=O)NC(=O)[C@H](CC(C)C)NC(=O)OCc1ccccc1` [Calpeptin]: the “surface PD-L1 immunofluorescence intensity” value came out at 0.935 ± 0.14. Consider `Cc1ccc(NC(=O)c2ccc(CN3CCN(C)CC3)cc2)cc1Nc1nc(-c2cccnc2)cs1` [Masitinib (AB1010)], for which the “surface PD-L1 immunofluorescence intensity” value was 0.876.

In the case of `COc1nc(C)nc(Cl)c1NC1=NCCN1` [Moxonidine], the “surface PD-L1 immunofluorescence intensity” value was found to be 1. In the case of `COc1nc(C)nc(Cl)c1NC1=NCCN1` [Moxonidine hydrochloride] it was 0.958; in that of `CCN(CC)CCNC(=O)c1cc(S(C)(=O)=O)ccc1OC` [Tiapride hydrochloride], 0.972. On to `O=C(CCCN1CC=C(n2c(=O)[nH]c3ccccc32)CC1)c1ccc(F)cc1` [Droperidol], for which the “surface PD-L1 immunofluorescence intensity” value was 1. In the case of `Cc1nc2c(c(=O)[nH]1)CSCC2` it was 0.939.

For `CCCCCCCC/C=C\CCCCCCCC(=O)N[C@@H](CO)Cc1ccc(O)cc1`, the “surface PD-L1 immunofluorescence intensity” value is 1.04. `C#CCN(C)Cc1ccccc1` [Pargyline hydrochloride]: the “surface PD-L1 immunofluorescence intensity” value was found to be 0.993. As to `COc1ccc2cc(CCC(C)=O)ccc2c1` [Nabumetone], the “surface PD-L1 immunofluorescence intensity” value is 1.05. As for `Cc1cccc(/C=C/c2ccccc2)n1`, the “surface PD-L1 immunofluorescence intensity” value worked out at 1.01.

With `CCn1cc(C(=O)O)c(=O)c2ccc(C)nc21` [Nalidixic acid sodium salt], the “surface PD-L1 immunofluorescence intensity” value came to 1.09.

Consider `COc1ccc(-c2oc3c(CC=C(C)C)c(O[C@@H]4O[C@H](CO)[C@@H](O)[C@H](O)[C@H]4O)cc(O)c3c(=O)c2O[C@@H]2O[C@@H](C)[C@H](O)[C@@H](O)[C@H]2O)cc1` [Icariin], for which the “surface PD-L1 immunofluorescence intensity” value worked out at 1.01. As to `Cc1cc(C)cc(C(=O)N(C)[C@H](Cc2ccc(-c3ccccc3)cc2)C(=O)N[C@@H](Cc2c[nH]c3ccccc23)C(=O)O)c1`, the “surface PD-L1 immunofluorescence intensity” value stood at 0.986. In the case of `Nc1ccc(S(=O)(=O)c2ccc(N)cc2)cc1` [Dapsone] it was 0.867; in that of `OCCN1CCN(CCCN2c3ccccc3Sc3ccc(Cl)cc32)CC1` [Perphenazine], 0.894. On to `CN(C)CCc1c[nH]c2ccc(Cn3cncn3)cc12` [Rizatriptan Benzoate (Maxalt)], for which the “surface PD-L1 immunofluorescence intensity” value came out at 1.06.

As to `CC1(C)OC(=O)NC1=O` [Dimethadione], the “surface PD-L1 immunofluorescence intensity” value came out at 1.01. The result for `N=C(N)NCC1COC2(CCCCC2)O1` (stereo not drawn) [Guanadrel sulfate] reads 0.985; that for `N[C@@H](C(=O)O)c1ccc(C(=O)O)c(C(=O)O)c1`, 1.04. In the case of `Fc1ccc(-c2nc3n(c2-c2ccncc2)CCS3)cc1` it was 0.868; in that of `CCC[C@H](N[C@@H](C)C(=O)N1[C@H](C(=O)O)C[C@@H]2CCCC[C@@H]21)C(=O)OCC` [Perindopril Erbumine (Aceon)], 0.936; in that of `CCC[C@H](N[C@@H](C)C(=O)N1[C@H](C(=O)O)C[C@@H]2CCCC[C@@H]21)C(=O)OCC` [Perindopril], 1.01.

Regarding `Nc1ccc(C(=O)NCC(=O)O)cc1` [Aminohippuric acid], the “surface PD-L1 immunofluorescence intensity” value amounted to 1.06. The result for `COc1ccc(NS(=O)(=O)c2ccc(N)cc2)nn1` [Sulfamethoxypyridazine] reads 1.03; that for `NC(C(=O)O)c1cc(O)cc(O)c1` (racemic), 1.1. Turning to `CC(=O)Oc1cccc2c1C(=O)c1c(OC(C)=O)cc(C(=O)O)cc1C2=O` [Diacerein], the “surface PD-L1 immunofluorescence intensity” value was determined as 1.13.

`O=c1oc(Cl)c(Cl)c2ccccc12` [3,4-Dichloroisocoumarin]: the “surface PD-L1 immunofluorescence intensity” value was 1.14.
